Results reported in the supplement of paper PMC10849652.
This is one part of the list.

Sequences of proteins named here, by UniProt entry; tags and fusion partners are left off. A change or cut given only in a name is not applied to a line headed by its entry.
UniProt P17482: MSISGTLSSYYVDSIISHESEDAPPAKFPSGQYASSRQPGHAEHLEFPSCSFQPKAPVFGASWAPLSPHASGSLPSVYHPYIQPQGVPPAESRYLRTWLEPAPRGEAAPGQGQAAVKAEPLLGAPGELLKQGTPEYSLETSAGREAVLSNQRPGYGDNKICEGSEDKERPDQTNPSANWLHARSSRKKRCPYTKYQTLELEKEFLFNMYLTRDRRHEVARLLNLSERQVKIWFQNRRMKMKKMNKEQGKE
UniProt P17066, whole entry, looked up: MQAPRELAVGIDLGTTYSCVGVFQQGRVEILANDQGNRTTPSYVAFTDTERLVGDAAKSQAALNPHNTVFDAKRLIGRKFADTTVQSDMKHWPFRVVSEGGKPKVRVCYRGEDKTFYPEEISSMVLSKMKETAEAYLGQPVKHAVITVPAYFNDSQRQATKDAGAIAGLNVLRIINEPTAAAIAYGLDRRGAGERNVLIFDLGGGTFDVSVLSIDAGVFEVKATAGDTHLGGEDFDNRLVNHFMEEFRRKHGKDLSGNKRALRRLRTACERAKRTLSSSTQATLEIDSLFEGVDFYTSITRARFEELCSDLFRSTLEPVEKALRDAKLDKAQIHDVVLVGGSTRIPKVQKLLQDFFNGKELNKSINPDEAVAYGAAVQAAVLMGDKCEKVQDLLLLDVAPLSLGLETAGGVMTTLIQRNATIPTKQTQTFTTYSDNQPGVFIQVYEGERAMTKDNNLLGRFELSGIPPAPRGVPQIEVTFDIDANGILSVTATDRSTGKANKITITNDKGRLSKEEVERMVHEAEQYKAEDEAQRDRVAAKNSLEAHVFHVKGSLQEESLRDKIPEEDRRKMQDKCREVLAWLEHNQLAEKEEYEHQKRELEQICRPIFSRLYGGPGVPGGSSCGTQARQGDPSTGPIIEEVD
UniProt P04792, whole entry, looked up: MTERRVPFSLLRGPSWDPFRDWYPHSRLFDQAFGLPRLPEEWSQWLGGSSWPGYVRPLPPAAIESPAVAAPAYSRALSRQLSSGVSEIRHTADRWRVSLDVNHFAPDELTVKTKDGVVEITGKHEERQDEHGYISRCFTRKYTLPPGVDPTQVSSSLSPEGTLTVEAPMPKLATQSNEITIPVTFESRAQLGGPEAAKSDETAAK
UniProt Q9Y547: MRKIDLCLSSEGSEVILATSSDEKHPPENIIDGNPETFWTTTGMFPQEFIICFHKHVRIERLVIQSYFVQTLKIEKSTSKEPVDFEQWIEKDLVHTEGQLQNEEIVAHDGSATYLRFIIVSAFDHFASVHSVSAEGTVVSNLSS
UniProt P09651: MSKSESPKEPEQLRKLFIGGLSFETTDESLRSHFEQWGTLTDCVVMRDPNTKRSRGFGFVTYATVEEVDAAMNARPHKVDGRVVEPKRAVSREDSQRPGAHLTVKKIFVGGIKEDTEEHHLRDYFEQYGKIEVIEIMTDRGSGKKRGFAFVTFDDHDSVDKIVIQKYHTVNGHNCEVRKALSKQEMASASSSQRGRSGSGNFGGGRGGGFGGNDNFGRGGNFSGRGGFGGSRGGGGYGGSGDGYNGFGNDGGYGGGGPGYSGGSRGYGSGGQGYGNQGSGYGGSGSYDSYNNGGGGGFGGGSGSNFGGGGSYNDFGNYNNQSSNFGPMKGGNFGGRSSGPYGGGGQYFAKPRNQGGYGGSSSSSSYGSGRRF
UniProt Q15651: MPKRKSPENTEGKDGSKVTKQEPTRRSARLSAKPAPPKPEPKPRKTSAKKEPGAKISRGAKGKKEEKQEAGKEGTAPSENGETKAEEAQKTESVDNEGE
UniProt Q0VDF9: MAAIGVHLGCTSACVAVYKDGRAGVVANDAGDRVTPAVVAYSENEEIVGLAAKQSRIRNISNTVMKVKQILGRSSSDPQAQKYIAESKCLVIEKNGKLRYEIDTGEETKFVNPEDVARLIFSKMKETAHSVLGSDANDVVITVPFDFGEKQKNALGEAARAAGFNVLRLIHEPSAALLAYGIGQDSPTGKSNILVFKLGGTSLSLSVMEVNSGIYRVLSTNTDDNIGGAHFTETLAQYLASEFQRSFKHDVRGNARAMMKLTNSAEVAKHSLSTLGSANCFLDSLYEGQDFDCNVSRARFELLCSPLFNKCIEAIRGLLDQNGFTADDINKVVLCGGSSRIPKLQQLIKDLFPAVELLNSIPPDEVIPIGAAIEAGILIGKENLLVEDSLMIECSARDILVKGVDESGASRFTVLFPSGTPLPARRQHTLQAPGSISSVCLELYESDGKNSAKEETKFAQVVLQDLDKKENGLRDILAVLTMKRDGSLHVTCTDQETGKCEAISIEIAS
UniProt Q92598: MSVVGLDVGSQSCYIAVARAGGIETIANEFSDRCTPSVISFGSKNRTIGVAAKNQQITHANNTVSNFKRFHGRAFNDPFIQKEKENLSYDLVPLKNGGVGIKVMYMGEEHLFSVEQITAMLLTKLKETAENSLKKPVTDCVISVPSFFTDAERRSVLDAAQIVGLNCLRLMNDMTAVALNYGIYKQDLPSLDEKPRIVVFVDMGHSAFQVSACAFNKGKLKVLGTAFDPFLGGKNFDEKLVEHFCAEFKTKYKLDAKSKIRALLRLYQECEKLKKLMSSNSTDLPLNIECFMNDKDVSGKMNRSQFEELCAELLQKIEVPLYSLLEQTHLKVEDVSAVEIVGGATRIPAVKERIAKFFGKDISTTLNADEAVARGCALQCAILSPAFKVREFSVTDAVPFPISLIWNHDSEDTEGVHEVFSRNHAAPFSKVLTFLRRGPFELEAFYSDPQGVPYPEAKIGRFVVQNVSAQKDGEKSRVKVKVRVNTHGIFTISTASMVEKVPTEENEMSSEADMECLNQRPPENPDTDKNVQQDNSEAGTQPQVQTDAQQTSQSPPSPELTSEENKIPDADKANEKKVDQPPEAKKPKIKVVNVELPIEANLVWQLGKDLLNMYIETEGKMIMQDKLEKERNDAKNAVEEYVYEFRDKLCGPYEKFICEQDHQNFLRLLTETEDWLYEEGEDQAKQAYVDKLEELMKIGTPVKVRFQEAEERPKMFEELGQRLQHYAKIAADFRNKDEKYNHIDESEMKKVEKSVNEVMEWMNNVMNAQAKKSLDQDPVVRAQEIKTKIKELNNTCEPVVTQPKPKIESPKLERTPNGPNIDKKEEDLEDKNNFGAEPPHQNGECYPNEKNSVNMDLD
UniProt Q14103: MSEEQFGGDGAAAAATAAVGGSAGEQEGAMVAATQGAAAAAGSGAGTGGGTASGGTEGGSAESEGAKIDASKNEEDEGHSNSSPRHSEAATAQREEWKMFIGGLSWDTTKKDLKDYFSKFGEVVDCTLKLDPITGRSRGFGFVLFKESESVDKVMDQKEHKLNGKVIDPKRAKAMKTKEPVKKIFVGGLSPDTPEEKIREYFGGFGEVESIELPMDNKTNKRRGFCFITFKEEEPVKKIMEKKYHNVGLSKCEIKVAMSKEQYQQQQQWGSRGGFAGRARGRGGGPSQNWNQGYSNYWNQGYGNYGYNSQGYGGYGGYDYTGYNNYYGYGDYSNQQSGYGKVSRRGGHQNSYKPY
UniProt P35914: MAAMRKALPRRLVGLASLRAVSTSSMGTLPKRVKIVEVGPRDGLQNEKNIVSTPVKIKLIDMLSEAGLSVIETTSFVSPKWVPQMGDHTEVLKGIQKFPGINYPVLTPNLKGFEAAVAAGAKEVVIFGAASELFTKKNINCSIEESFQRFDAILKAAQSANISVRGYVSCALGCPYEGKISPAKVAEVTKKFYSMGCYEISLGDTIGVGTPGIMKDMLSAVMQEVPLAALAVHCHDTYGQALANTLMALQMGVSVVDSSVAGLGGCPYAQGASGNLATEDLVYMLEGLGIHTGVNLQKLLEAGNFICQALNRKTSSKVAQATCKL
UniProt O14964, whole entry, looked up: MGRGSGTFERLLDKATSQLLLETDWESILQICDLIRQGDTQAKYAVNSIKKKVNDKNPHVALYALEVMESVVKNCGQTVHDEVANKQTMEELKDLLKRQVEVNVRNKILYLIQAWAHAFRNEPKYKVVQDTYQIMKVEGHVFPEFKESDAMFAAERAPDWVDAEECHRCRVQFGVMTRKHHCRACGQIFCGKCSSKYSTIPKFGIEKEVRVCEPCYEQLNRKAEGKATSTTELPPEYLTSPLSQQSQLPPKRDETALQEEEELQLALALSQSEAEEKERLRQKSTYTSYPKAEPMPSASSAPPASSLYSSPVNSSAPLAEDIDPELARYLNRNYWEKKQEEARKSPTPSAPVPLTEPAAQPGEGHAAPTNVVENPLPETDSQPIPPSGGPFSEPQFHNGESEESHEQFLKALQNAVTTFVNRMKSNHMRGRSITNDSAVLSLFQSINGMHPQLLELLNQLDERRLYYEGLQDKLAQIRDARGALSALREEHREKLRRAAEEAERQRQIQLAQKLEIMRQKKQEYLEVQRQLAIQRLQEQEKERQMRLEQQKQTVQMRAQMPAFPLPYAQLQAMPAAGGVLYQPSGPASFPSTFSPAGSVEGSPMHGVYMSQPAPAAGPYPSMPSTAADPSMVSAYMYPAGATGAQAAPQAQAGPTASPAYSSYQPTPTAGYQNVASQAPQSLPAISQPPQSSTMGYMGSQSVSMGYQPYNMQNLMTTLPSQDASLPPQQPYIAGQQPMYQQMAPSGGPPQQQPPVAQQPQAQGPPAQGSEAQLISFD
UniProt Q53GQ0: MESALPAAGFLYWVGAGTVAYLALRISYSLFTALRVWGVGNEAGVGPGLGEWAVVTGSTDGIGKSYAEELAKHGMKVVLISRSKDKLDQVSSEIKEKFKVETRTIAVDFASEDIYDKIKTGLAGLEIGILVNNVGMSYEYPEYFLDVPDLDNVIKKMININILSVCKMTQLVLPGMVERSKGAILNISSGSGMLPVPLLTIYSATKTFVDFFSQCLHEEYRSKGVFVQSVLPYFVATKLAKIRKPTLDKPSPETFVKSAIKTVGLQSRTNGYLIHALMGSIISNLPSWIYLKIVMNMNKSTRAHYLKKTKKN
UniProt P82970: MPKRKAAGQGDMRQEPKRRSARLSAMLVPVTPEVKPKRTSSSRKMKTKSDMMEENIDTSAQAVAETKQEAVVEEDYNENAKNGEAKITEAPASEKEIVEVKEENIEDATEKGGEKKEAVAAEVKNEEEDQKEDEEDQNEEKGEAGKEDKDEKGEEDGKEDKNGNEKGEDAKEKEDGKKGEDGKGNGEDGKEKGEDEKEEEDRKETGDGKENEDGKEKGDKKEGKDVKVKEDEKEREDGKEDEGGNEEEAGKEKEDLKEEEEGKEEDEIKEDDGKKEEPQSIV
UniProt O43464: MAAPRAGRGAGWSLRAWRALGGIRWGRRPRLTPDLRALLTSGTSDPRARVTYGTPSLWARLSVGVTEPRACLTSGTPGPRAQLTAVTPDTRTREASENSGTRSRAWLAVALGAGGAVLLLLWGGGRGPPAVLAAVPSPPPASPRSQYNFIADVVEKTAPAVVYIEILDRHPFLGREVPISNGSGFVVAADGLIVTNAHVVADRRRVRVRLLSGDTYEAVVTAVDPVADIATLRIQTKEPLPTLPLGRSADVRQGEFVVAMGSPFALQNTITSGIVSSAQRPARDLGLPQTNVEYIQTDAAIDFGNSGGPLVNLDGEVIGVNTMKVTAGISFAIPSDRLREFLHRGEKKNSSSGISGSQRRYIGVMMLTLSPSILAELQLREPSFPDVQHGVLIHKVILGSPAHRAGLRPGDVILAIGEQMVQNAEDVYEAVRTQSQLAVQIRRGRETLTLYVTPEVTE
UniProt Q9BUJ2: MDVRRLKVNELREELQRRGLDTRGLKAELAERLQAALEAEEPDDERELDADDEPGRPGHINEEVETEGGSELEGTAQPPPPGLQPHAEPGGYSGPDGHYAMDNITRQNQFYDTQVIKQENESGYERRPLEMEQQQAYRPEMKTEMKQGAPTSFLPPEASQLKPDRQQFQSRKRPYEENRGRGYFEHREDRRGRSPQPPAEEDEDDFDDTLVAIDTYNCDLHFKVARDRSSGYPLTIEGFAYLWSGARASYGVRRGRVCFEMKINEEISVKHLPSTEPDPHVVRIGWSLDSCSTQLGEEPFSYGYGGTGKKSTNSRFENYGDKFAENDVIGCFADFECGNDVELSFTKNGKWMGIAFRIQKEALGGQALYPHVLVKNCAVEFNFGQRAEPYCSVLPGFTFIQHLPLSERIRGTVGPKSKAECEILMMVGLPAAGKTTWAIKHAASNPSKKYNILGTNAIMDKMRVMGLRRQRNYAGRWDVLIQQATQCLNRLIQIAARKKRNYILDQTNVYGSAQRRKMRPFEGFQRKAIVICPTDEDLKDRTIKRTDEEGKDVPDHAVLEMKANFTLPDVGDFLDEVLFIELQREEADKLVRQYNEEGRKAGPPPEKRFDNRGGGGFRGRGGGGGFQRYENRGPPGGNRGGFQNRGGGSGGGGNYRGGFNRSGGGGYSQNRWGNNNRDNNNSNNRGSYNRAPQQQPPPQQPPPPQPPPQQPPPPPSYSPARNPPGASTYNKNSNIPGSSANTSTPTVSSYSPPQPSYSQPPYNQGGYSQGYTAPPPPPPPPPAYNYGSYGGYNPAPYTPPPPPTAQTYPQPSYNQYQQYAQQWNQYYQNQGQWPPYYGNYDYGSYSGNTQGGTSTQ
UniProt Q9BW72: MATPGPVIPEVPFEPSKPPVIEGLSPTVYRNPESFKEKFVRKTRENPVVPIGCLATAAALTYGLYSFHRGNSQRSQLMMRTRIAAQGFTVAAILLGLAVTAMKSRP

compound: COC1=CC=C(C=C1)CN2C=CC3=C2C=C(C=C3)C(=O)NO; assay: log2 fold change, soluble protein after heating vs DMSO (PISA); higher = thermal stabilisation; K562 cells, 10 uM, 30 min; active = over 0.2 and 3.5 SD of the protein, either way, in both replicates (recomputed)
Outline: (§1)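 Soluble protein was quantified by TMTpro 16plex LC-MS/MS after channel sums were equalised. It was obtained as the supernatant after 21,000xg for 90 min from pooled aliquots of K562 cells (2×10^6 cells/mL, 10 μM compound, 30 min) heated for 3 min across 48°C-58°C and extracted in PBS with 0.5% NP-40 at 4°C. Thermal stability values are relative to control samples and come from duplicates. They are given as log2 fold changes.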

log2 fold change, inactive:
HOXB9 (UniProt P17482) 0.037
HSPA6 (UniProt P17066) 0.027
HSPB1 (UniProt P04792) -0.024
HSPBP1 isoform 3 (UniProt Q9NZL4) 0.033
HSP90AB3P (UniProt Q58FF7) 0.02
HSPB11 (UniProt Q9Y547) 0.025
HNRNPA1 (UniProt P09651) -0.095
HMGN3 (UniProt Q15651) 0.066
HSD17B8 (UniProt Q92506) -0.077
HSPA14 (UniProt Q0VDF9) -0.03
HUS1 (UniProt O60921) -0.041
HIRIP3 (UniProt Q9BW71) -0.044
HSPH1 (UniProt Q92598) 0.056
HSP90AA4P (UniProt Q58FG1) -0.177
HNRNPD isoform 4 (UniProt Q14103) 0.023
HYOU1 (UniProt Q9Y4L1) -0.036
HMGCL (UniProt P35914) -0.066
HGS (UniProt O14964) 0.03
HSD17B12 (UniProt Q53GQ0) 0.069
HMGN5 (UniProt P82970) 0.004
HSPG2 (UniProt P98160) -0.06
HIST2H2BF isoform 2 (UniProt Q5QNW6) 0.062
HIBADH (UniProt P31937) -0.018
HIST2H3A (UniProt Q71DI3) 0.037
ICAM4 (UniProt Q14773) -0.078
HK1 isoform 2 (UniProt P19367) 0.041
HTRA2 (UniProt O43464) 0.022
HSPA1L (UniProt P34931) -0.191
HNRNPD (UniProt Q14103) -0.037
HNRNPUL1 (UniProt Q9BUJ2) 0.033
HIGD2A (UniProt Q9BW72) -0.294
HIBCH (UniProt Q6NVY1) 0.092

compound: CON(C)C(=O)N1N=C(c2cc(F)ccc2F)S[C@@]1(CCCN)c1ccccc1 [filanesib]; assay: as above
Outline: as §1

log2 fold change, inactive:
HOXB9 (UniProt P17482) -0.002
HSPA6 (UniProt P17066) 0.006
HSPB1 (UniProt P04792) 0.075
HSPBP1 isoform 3 (UniProt Q9NZL4) -0.032
HSP90AB3P (UniProt Q58FF7) -0.024
HSPB11 (UniProt Q9Y547) -0.062
HNRNPA1 (UniProt P09651) 0.34
HMGN3 (UniProt Q15651) 0.08
HSD17B8 (UniProt Q92506) -0.083
HSPA14 (UniProt Q0VDF9) 0.072
HUS1 (UniProt O60921) -0.062
HIRIP3 (UniProt Q9BW71) -0.016
HSPH1 (UniProt Q92598) -0.017
HSP90AA4P (UniProt Q58FG1) 0.051
HNRNPD isoform 4 (UniProt Q14103) 0.29
HYOU1 (UniProt Q9Y4L1) 0.016
HMGCL (UniProt P35914) -0.064
HGS (UniProt O14964) -0.086
HSD17B12 (UniProt Q53GQ0) -0.013
HMGN5 (UniProt P82970) 0.002
HSPG2 (UniProt P98160) 0.011
HIST2H2BF isoform 2 (UniProt Q5QNW6) 0.248
HIBADH (UniProt P31937) -0.012
HIST2H3A (UniProt Q71DI3) 0.268
ICAM4 (UniProt Q14773) 0.02
HK1 isoform 2 (UniProt P19367) -0.044
HTRA2 (UniProt O43464) -0.018
HSPA1L (UniProt P34931) 0.07
HNRNPD (UniProt Q14103) 0.266
HNRNPUL1 (UniProt Q9BUJ2) 0.047
HIBCH (UniProt Q6NVY1) -0.145

compound: CO[C@H]1C[C@@H]2CC[C@@H](C)[C@@](O)(O2)C(=O)C(=O)N2CCCC[C@H]2C(=O)O[C@H]([C@H](C)C[C@@H]2CC[C@H](n3cnnn3)[C@H](OC)C2)CC(=O)[C@H](C)/C=C(\C)[C@@H](O)[C@@H](OC)C(=O)[C@H](C)C[C@H](C)/C=C/C=C/C=C/1C [zotarolimus]; assay: as above
Outline: as §1

log2 fold change, inactive:
HOXB9 (UniProt P17482) 0
HSPA6 (UniProt P17066) -0.022
HSPB1 (UniProt P04792) 0.017
HSPBP1 isoform 3 (UniProt Q9NZL4) 0.033
HSP90AB3P (UniProt Q58FF7) 0.171
HSPB11 (UniProt Q9Y547) -0.005
HNRNPA1 (UniProt P09651) -0.082
HMGN3 (UniProt Q15651) -0.004
HSD17B8 (UniProt Q92506) -0.099
HSPA14 (UniProt Q0VDF9) 0.012
HUS1 (UniProt O60921) 0.015
HIRIP3 (UniProt Q9BW71) 0.031
HSPH1 (UniProt Q92598) 0.045
HSP90AA4P (UniProt Q58FG1) -0.083
HNRNPD isoform 4 (UniProt Q14103) -0.038
HYOU1 (UniProt Q9Y4L1) 0.044
HMGCL (UniProt P35914) 0.031
HGS (UniProt O14964) 0.038
HSD17B12 (UniProt Q53GQ0) 0.03
HMGN5 (UniProt P82970) -0.055
HSPG2 (UniProt P98160) -0.013
HIST2H2BF isoform 2 (UniProt Q5QNW6) -0.163
HIBADH (UniProt P31937) 0.009
HIST2H3A (UniProt Q71DI3) -0.167
ICAM4 (UniProt Q14773) 0.018
HK1 isoform 2 (UniProt P19367) -0.021
HTRA2 (UniProt O43464) -0.02
HSPA1L (UniProt P34931) -0.004
HNRNPD (UniProt Q14103) -0.02
HNRNPUL1 (UniProt Q9BUJ2) -0.043
HIBCH (UniProt Q6NVY1) 0.016
